According to article PMC10567574, “piRNA processing by a trimeric Schlafen-domain nuclease” (Nature, 2023):
Where a chain is given by its changes, count along the chain named. In names and notes the source's numbering stands. No constants are given. Whether binding was seen depends on the method and setting. For part of these data: In cells and extracts the contact can be indirect. Some results given as binding are weak or reduced against the parent protein; the word gives no strength. For part of these data: Where a sequence is shown, tags or fusion partners need not be part of it. Blank lines part the entries; values can stand above or below the binder they belong to.

What was measured:
[1] = biological target: T1, TOFU-2 (residues 200-433), subunit of mini-PUCH (C. elegans) (UniProt Q19614); experiment: co-purification of a co-expressed complex (IMAC, heparin, SEC); TOFU-1 160-373, TOFU-2 200-433 (or E216A) and SLFL-3 1-345 co-expressed in E. coli BL21(DE3); HisTrap, HiTrap Heparin, then HiLoad Superdex 200 16/600 in 20 mM Tris/HCl pH 7.5, 150 mM NaCl, 10% glycerol, 2 mM DTT
T1 sequence: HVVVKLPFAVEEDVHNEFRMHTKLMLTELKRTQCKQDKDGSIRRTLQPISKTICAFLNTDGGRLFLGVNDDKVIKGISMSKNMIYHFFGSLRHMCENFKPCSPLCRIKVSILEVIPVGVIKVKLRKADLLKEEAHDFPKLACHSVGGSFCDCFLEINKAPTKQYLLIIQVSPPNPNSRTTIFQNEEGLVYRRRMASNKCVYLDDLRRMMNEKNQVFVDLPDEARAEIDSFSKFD

[2] = biological target: T2, TOFU-2 (residues 200-433, E216A), subunit of inactive mini-PUCH (C. elegans) (UniProt Q19614); experiment: as above
T2 sequence: T1 sequence with E17A

MBP-tagged TOFU-1^82-373 = biological target: T3, MBP-tagged TOFU-1^82-373 (C. elegans, UniProt O17608 82-373); experiment: pull-down; purified MBP-tagged TOFU-1 as bait on amylose beads, incubated with excess prey; 20 mM Tris/HCl pH 7.5, 150 mM NaCl, 10% glycerol, 0.05% NP40, 1 mM DTT; SDS-PAGE with Coomassie staining; both purified
T3 construct: TOFU-1 (SLFL-1), C. elegans, residues 82-373; source: E. coli BL21(DE3) derivative, purified; not shown: MBP, N-terminal, kept
T3 sequence (looked up): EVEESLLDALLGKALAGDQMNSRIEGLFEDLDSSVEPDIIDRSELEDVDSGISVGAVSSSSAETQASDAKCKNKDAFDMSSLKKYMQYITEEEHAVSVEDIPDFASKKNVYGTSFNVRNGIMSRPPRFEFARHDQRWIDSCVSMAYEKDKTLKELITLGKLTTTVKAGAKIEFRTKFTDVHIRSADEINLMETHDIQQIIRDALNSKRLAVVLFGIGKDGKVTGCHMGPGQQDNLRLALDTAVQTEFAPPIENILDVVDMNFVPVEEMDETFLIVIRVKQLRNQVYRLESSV

[3] = biological target: T4, eGFP-TOFU-2 (full-length CeTOFU-2) (C. elegans) (UniProt Q19614); experiment: co-IP; BmN4 cells transfected with the indicated constructs; eGFP-TOFU-2 immunoprecipitated with GFP-Trap beads overnight at 4 C in IP-150 lysis buffer (30 mM HEPES pH 7.4, 150 mM KOAc, 2 mM Mg(OAc)2, 0.1% IGEPAL); western blot for Flag and HA
T4 sequence: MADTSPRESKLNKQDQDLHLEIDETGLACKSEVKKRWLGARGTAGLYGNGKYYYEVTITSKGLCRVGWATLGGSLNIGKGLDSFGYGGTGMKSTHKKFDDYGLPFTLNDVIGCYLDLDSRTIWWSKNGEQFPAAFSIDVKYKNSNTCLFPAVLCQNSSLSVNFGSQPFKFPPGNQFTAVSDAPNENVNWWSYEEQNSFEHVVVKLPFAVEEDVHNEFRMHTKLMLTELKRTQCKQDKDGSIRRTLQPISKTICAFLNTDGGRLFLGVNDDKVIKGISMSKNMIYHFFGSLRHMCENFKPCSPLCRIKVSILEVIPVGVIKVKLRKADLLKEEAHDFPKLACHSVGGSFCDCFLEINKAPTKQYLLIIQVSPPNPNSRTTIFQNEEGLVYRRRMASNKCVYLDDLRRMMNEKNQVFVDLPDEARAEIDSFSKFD

[4] = biological target: T5, TOFU-1^82-172 L88R/L92R (C. elegans) (UniProt O17608); experiment: SEC; purified proteins alone or mixed at 20-40 uM, 1 h on ice; Superdex 200 Increase 3.2/300 in 20 mM Tris/HCl pH 7.5, 150 mM NaCl, 2 mM DTT; elution volumes compared, peak fractions on SDS-PAGE; both purified
T5 sequence: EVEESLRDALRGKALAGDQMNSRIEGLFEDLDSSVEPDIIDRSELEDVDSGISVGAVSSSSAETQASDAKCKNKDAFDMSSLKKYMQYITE

B1: TOFU-1 (residues 160-373), subunit of mini-PUCH (domain or fragment, UniProt O17608 160-373)
chain: MSSLKKYMQYITEEEHAVSVEDIPDFASKKNVYGTSFNVRNGIMSRPPRFEFARHDQRWIDSCVSMAYEKDKTLKELITLGKLTTTVKAGAKIEFRTKFTDVHIRSADEINLMETHDIQQIIRDALNSKRLAVVLFGIGKDGKVTGCHMGPGQQDNLRLALDTAVQTEFAPPIENILDVVDMNFVPVEEMDETFLIVIRVKQLRNQVYRLESSV
binding [1]: binds | binding [2]: binds

B4: TOFU-1-3xFlag-mCherry (CeTOFU-1) (protein, UniProt O17608 1-373)
chain: MAALFEENDSYSDSENEEDFSGFLSEIEENENEDEFENDDEFEDDDELENVDELEDDELSSEEVDIPSENEVIVELHDGQAEVEESLLDALLGKALAGDQMNSRIEGLFEDLDSSVEPDIIDRSELEDVDSGISVGAVSSSSAETQASDAKCKNKDAFDMSSLKKYMQYITEEEHAVSVEDIPDFASKKNVYGTSFNVRNGIMSRPPRFEFARHDQRWIDSCVSMAYEKDKTLKELITLGKLTTTVKAGAKIEFRTKFTDVHIRSADEINLMETHDIQQIIRDALNSKRLAVVLFGIGKDGKVTGCHMGPGQQDNLRLALDTAVQTEFAPPIENILDVVDMNFVPVEEMDETFLIVIRVKQLRNQVYRLESSV
binding [3]: binds

B5: HA-SLFL-3 (CeSLFL3) (protein, UniProt O61766 1-383)
chain: MDSGDFSPMQSNFSLGFMSFEDIPEDARTTEMIDKIVFEEDKEYDHTQDSFRYGRVTTGVSYNLVTGKIPKTVFEQVKAKDDENDNVEFEMEHLEDKETAHKTQTFDELYESQMPKYFDYQSNFSDVNGIWTLLFDQNHYEKMSTFELQAAICAALNSKHFMMICVGIDAFNAVTGVEMSAKDRVVFRMALTRAVAGEFQPPLVKVAPKQLTGVSPMKRDISEVTSSIDVLFVPVIGVTDEVENNRFLIVVRVKEISDKVYQISSGRIYNEQEGRVVEMSDMNEAFHKLIVEKSISDIQTRRGSMFMLEPEPFLEDSAVIFTESNEIPSENHEISRVHVKNCTERSLSQSLLNLLDIQNIGWIFFGTALSFCIYNNAIKPLVK
binding [3]: binds

Continued, values first:

binding [1]: binds | binding [2]: binds
B2: SLFL-3 (residues 1-345), subunit of mini-PUCH (domain or fragment, UniProt O61766 1-345)
chain: MDSGDFSPMQSNFSLGFMSFEDIPEDARTTEMIDKIVFEEDKEYDHTQDSFRYGRVTTGVSYNLVTGKIPKTVFEQVKAKDDENDNVEFEMEHLEDKETAHKTQTFDELYESQMPKYFDYQSNFSDVNGIWTLLFDQNHYEKMSTFELQAAICAALNSKHFMMICVGIDAFNAVTGVEMSAKDRVVFRMALTRAVAGEFQPPLVKVAPKQLTGVSPMKRDISEVTSSIDVLFVPVIGVTDEVENNRFLIVVRVKEISDKVYQISSGRIYNEQEGRVVEMSDMNEAFHKLIVEKSISDIQTRRGSMFMLEPEPFLEDSAVIFTESNEIPSENHEISRVHVKNCTER

binding (MBP-tagged TOFU-1^82-373): binds
B3: PETISCO (recombinant, reconstituted: IFE-3, TOFU-6, ERH-2 and PID-3) (complex, UniProt O61955 1-251; Q09293 1-367; O76616 1-307; Q20057 1-113)
chain 1: MSTSVAENKALSASGDVNASDASVPPELLTRHPLQNRWALWYLKADRNKEWEDCLKMVSLFDTVEDFWSLYNHIQSAGGLNWGSDYYLFKEGIKPMWEDVNNVQGGRWLVVVDKQKLQRRTQLLDHYWLELLMAIVGEQFDEYGDYICGAVVNVRQKGDKVSLWTRDATRDDVNLRIGQVLKQKLSIPDTEILRYEVHKDSSARTSSTVKPRICLPAKDPAPVKEKGPAATTSPSNPGTEATGTSPATPTP
chain 2: MASSSTAYYLKDAGFHIRNIPKAWNDWNLFHVFQNFGKVSYCRVVGQSNDGQVQLGFVNMMSVADADEVRKNLNDGNLIGENFTLKVTDHKNVGGSLLPMASNSVQKLVSSPPSKSGPVLLSSSWLPLNKDIEVEVVDYLPSSSVAPDLFALTLLRINDSSMKEKYDSMHEKMNAYAQIVPFDSELEIGYDGVFRDAPRSVRRVRRISATKLYLVDFGKIINYEKAKCFQLPKVFQSMPTRVSLCGLDGLTWSPVAIPSFDNIREVVKKWGQMENSTLHAMACGFQGSINMINLFCGKSILADRLQRKGVCEYLPRSQQPHYAYSRETLLQHNNSGVTAQISNDADVVKDLLKKIDGVKNMLRELEL
chain 3: MVAHQKADFKSKWAMVVTVNNLNDKKRADLREFSEWFIETLRLEGAFIGHYFNYEAAPVTIVETLPGNFDSCTNAYQKIHKEHPQVVLVVHILPQSQSNEYEWMKVLASRYGFVRQGLLYDNCANRFQNVETDQNSVFRNMCQWIYRSGTAIVRNEGNACGILHGKDPKPTFDKVLFNSEDIKDSVFKVLHAEEEPRGADQENMLKISGYPGMLNTFGIAQLLTPYRVNGITITGAQSAVVALENKFQVYQAVQDFNGKKLDRNHKLQVSSLVVSSPAVPLEWPSLKKSKKLVEQVGKPIRLSKVSS
chain 4: MSTSSHTVLLIQTSPRLDSRTWGDYESVTDALDALCKMFEDFLSKKSAAPVTYDVSQVYEFLDKLSDVSMMIFNRETGQYIGRTRAWIKQQVYEMMRGRCQHPEGGEKVIVGY

binding [3]: binds
B6: HA-SLFL-4 (CeSLFL4) (protein, UniProt O76720 1-352)
chain: MIDKIVFEEDEEYDLTQDSFRYGRVTTGASYNLVTGKIPETVLEQVKAKDDENDDVEFEMDHLEDKEAVQKTKTFDELYESQMPKYFEYQSNFSEVNGIWTLLFDQNHYENMSTFELQAAICAALNSKHYMMICVGIDAFNAVTGVEMSAKDRVVFRMALTRAVAGEFQPPLVKVAPKQLTGVSPMKRDISEVTSSIDVLFIPVIGVTDEVENNRFLIVVRVKEISDKVYQISSGRIYNELEGRVVEMSDMNEAFHKLIVEQSISDIQTRRGSMFMLEPEPFLEDSPVIFTGSKEILRENHEIPNILKENSTERSLSQSLLNLLDIQNIGWIFFGTALSCCIYNNAIKPLVK

binding [4]: no binding
B7: TOFU-6^eTUDOR V266E (domain or fragment, UniProt Q09293 119-314)
chain: VLLSSSWLPLNKDIEVEVVDYLPSSSVAPDLFALTLLRINDSSMKEKYDSMHEKMNAYAQIVPFDSELEIGYDGVFRDAPRSVRRVRRISATKLYLVDFGKIINYEKAKCFQLPKVFQSMPTRVSLCGLDGLTWSPVAIPSFDNIREEVKKWGQMENSTLHAMACGFQGSINMINLFCGKSILADRLQRKGVCEYL
